{
  "sequences": {"note": "The chains behind the UniProt entries cited, without tags or fusion partners. Where a name states a change or a piece, a line headed by the entry shows the natural chain unless it says otherwise.", "UniProt Q8MUJ1": "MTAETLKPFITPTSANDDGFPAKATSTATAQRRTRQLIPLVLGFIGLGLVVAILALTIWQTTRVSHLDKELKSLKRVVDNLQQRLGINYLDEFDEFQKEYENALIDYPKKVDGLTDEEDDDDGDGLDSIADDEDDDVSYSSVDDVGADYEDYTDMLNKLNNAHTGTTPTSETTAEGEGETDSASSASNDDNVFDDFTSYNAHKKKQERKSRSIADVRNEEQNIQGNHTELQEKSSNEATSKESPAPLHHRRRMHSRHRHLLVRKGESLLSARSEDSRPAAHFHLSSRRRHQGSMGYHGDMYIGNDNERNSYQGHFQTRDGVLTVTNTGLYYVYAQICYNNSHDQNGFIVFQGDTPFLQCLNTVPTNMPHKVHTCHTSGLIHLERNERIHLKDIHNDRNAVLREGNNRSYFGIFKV"},
  "source": "paper PMC8024323",
  "about": "“Drosophila TNFRs Grindelwald and Wengen bind Eiger with different affinities and promote distinct cellular functions” (Nature Communications, 2021)",
  "binders": {"B1": {"name": "Grnd^30–97 (extracellular domain of Grindelwald) (domain or fragment, Drosophila melanogaster, UniProt Q9VJ83 30-97, looked up)", "chain": "GESRDCHGTICHPVNEFCYVATERCHPCIEVCNNQTHNYDAFLCAKECSAYKTFEPLKAEMLDIQNTQ", "notes": "Grindelwald (Grnd), Drosophila melanogaster, extracellular domain, residues 30-97; pETM14 vector; His6-tag removed with PreScission protease; Monomer by static light scattering; also called wild-type Grnd^30–97; source: E. coli SHuffle B cells (NEB), purified (Ni HiTrap, PreScission, Resource-Q); not shown: His6, N-terminal, cleaved"}},
  "key": {"[1]": {"molecular_target": "Strep-Egr^146–409 Asp337Ala (Drosophila melanogaster) (UniProt Q8MUJ1)", "experiment": "pull-down; 2 μM strep-tagged Egr^146–409 adsorbed on Strep-tactin beads, 10 μM Grnd^30–97 in solution, 1 h at 4 °C, 0.01 M Hepes pH 7.5, 0.1 M NaCl, 5% glycerol, 0.05% Tween, 0.5 mM EDTA; Coomassie staining; both purified"}, "[2]": {"molecular_target": "Strep-Egr^146–409 Arg396Ala-Arg401Ala (Drosophila melanogaster) (UniProt Q8MUJ1)", "experiment": "pull-down; 2 μM strep-tagged Egr^146–409 adsorbed on Strep-tactin beads, 10 μM Grnd^30–97 in solution, 1 h at 4 °C, 0.01 M Hepes pH 7.5, 0.1 M NaCl, 5% glycerol, 0.05% Tween, 0.5 mM EDTA; Coomassie staining; both purified"}},
  "note": "These are yes or no findings as the source states them, for the method shown.",
  "data": [
    {"binder": "B1", "values": [
      {"measurement": "binding", "setting": "[1]", "value": "no binding (tested: 10 μM Grnd^30–97 on 2 μM Egr^146–409)"},
      {"measurement": "binding", "setting": "[2]", "value": "no binding (tested: 10 μM Grnd^30–97 on 2 μM Egr^146–409)"}
    ]}
  ]
}
